Some entries share one result that the patent states for a list of compounds. In the oligonucleotide strings, read from the 5' end, every base follows the letter of its sugar. An asterisk marks phosphorothioate; unmarked linkages are phosphodiester. Other units and linkages are bracketed, terminal groups are in braces. A string of capitals states the bases alone. d = 2'-deoxy (DNA); m = 2'-O-methyl; r = 2'-OH (RNA); {P} = phosphate; f = 2'-fluoro
How the values were obtained:
[1] = siRNA stability in human serum at 37° C., HPLC analysis; type: in vitro ADME
Procedure: Phosphorothioate modifications at the 3′ ends of both sense and antisense strands of a dsRNA can protect against exonucleases. 2′OMe and 2′F modifications in both the sense and antisense strands of a dsRNA can protect against endonucleases. AD-1a2 (see Table 5b) contains 2′OMe modifications on both the sense and antisense strands. Experiments were performed to determine if the inherent stability (as measured by siRNA stability in human serum) or the degree or type of chemical modification (2′OMe versus 2′F or a mixture) was related to either the observed rat efficacy or the duration of silencing effects. Stability of siRNAs with the same AD-1a2 core sequence, but containing different chemical modifications were created and tested for activity in vitro in primary Cyno monkey hepatocytes. A series of these molecules that maintained similar activity as measured by in vitro IC50 values for PCSK9 silencing (Table 5b), were then tested for their stability against exo and endonuclease cleavage in human serum. Each duplex was incubated in human serum at 37° C. (a time course), and subjected to HPLC analysis. […] Sequences AD-1a3, AD-1a5, and AD-1a4, which were more heavily modified (see chemical modifications in Table 5) all had T ½'s greater than 24 hours. […] Blood was collected from animals at various days post-dose, and total cholesterol concentrations were measured. Previous experiments had shown a very tight correlation between the lowering of PCSK9 transcript levels and total cholesterol values in rats treated with LNP01-1a2 (FIG. 10A).

PCSK9 mRNA = test: In vivo efficacy in C57/BL6 mice, LNP-01 formulated siRNA, liver PCSK9 mRNA by branched DNA; parameters: species or system mouse; conditions: formulated in LNP-01

## AD-1a3: modified dsRNA, AD-1a2 core sequence, Alt 2′ F, 2′ OMe both strands; SEQ ID NO:1509/1510 (chain 1 GCCUGGAGUUUAUUCGGAATT; chain 2 {P}-mUfUmCfCmGfAmAfUmAfAmAfCmUfCmCfAmGfGmCdT*dT; chain 1: sugars from the 5' end fmfmfmfmfmfmfmfmfmfdd, backbone not given here)
[1]
  T ½ in pooled human serum: greater than 24 hours

## AD-1a4: modified dsRNA, sense 2′ OMe, antisense 2′ F all Py, 5′ Phosphate; SEQ ID NO:1511/1512 (sense rGmCmCmUrGrGrArGmUmUmUrAmUmUmCrGrGrArAdT*dT; antisense {P}-fUfUfCfCrGrArAfUrArArAfCfUfCfCrArGrGfCdT*dT)
[1]
  T ½ in pooled human serum: greater than 24 hours

## AD-1a5: modified dsRNA, sense 2′ F, antisense 2′ F all Py, 5′ Phosphate; SEQ ID NO:1513/1514 (sense GCCUGGAGUUUAUUCGGAATT; antisense {P}-fUfUfCfCrGrArAfUrArArAfCfUfCfCrArGrGfCdT*dT; sense: chemistry not given here; sense strand 2'-F modified, exact pattern not fully given)
[1]
  T ½ in pooled human serum: greater than 24 hours

## AD-9314: unmodified parental PCSK9 siRNA, SEQ ID NO:1503/1504 (chain 1 rGrCrCrUrGrGrArGrUrUrUrArUrUrCrGrGrArAdT*dT; chain 2 rUrUrCrCrGrArArUrArArArCrUrCrCrArGrGrCdT*dT)
PCSK9 mRNA
  silencing of endogenous PCSK9 in mice: 50-60%

## AD-10792: 2′OMe modified dsRNA targeting PCSK9 at 1091-1109, SEQ ID NO:1305/1306 (chain 1 rGmCmCmUrGrGrArGmUmUmUrAmUmUmCrGrGrArAdT*dT; chain 2 rUrUrCrCrGrArAmUrArArArCrUrCmCrArGrGrCdT*dT)
PCSK9 mRNA
  silencing of endogenous PCSK9 in mice: 50-60%

From patent publication US20120016009A1, “Optimized Methods For Delivery Of DSRNA Targeting The PCSK9 Gene” (priority 2008, published 2012)
